For one assay, the target named is T1, 5-HT2 receptor (Sus scrofa, UniProt P50129).
T1 construct: membrane preparations from porcine cortical material; from tissue; host or cells: porcine cerebral cortex membranes
The assay is described as follows: radioligand binding, porcine cortical membranes, [^3H]ketanserin.

Protein sequences, listed by entry. Tags and fused reporters are not part of them.
UniProt P50129, whole entry: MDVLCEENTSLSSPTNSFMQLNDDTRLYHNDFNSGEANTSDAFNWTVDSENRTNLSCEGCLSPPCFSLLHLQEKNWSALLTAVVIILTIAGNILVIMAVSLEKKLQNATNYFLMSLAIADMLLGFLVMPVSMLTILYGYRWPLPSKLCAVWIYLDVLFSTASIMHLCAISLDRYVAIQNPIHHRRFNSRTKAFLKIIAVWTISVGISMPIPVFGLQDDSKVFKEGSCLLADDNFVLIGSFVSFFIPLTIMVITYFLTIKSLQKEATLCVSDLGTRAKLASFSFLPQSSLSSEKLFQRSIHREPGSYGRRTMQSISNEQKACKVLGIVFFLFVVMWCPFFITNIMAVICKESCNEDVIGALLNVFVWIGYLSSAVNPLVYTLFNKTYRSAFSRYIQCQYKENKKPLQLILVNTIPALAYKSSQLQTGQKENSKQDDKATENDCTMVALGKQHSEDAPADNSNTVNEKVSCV

The next assay deals with T2, 5-HT1A receptor (Sus scrofa, UniProt A0A4X1UTF5).
T2 construct: membrane preparations from porcine cortical material; from tissue; host or cells: porcine cerebral cortex membranes
T2 sequence (A0A4X1UTF5 1-422): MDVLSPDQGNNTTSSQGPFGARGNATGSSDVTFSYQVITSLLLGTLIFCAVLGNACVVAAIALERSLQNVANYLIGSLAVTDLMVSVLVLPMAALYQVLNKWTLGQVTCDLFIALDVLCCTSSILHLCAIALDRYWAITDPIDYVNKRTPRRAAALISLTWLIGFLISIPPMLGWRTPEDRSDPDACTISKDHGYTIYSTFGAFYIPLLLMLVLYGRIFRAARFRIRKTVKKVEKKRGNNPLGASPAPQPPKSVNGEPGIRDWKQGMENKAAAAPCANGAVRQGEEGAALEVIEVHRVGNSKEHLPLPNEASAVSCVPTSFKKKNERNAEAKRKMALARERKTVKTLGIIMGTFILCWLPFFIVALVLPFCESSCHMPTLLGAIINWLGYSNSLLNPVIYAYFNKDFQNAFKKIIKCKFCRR
The assay is described as follows: radioligand binding, porcine cortical membranes, [^3H]8-OH-DPAT and [^3H]WAY 100635. As to conditions: Ki 5-HT1a.

This note sets out measurements from US20100168125A1, “INDOLIZINES AND AZA-ANALOG DERIVATIVES THEREOF AS CNS ACTIVE COMPOUNDS” (priority 2007, published 2010).

Regarding `O=C1CCc2ccc(OCCCCN3CCN(c4cccc(Cl)c4Cl)CC3)cc2N1` [aripiprazole, reference compound], the Ki – broadly, a dissociation constant, usually derived from enzyme kinetics or from competition with a known ligand – lay in the range of 301 to 3000 nM on 5-HT2 receptor and 30 to 300 nM on 5-HT1A receptor.
